From publication PMC3362779
These are yes or no findings as the source states them, for the method shown. In cells and extracts the contact can be indirect. Binding can be weak; no strength is given.

Key:
[1] = molecular target: T1, epithelial sodium channel alpha subunit (α-ENaC) (rat (endogenous in ATII cells)) (UniProt P37089); test: co-IP; 500 μg total protein of ATII cell lysate immunoprecipitated with anti-α-, β- or γ-ENaC antibodies at 4°C overnight, protein A/G-agarose 4 h at 4°C, four washes with lysis buffer, western blot for Nedd4-2; basal conditions, and cells treated with insulin (200 mU/L, 2 h) with or without LY294002 (10 μM) or Akt inhibitor (100 nM): co-precipitated Nedd4-2 decreased by insulin, the decrease blocked by the inhibitors
T1 sequence: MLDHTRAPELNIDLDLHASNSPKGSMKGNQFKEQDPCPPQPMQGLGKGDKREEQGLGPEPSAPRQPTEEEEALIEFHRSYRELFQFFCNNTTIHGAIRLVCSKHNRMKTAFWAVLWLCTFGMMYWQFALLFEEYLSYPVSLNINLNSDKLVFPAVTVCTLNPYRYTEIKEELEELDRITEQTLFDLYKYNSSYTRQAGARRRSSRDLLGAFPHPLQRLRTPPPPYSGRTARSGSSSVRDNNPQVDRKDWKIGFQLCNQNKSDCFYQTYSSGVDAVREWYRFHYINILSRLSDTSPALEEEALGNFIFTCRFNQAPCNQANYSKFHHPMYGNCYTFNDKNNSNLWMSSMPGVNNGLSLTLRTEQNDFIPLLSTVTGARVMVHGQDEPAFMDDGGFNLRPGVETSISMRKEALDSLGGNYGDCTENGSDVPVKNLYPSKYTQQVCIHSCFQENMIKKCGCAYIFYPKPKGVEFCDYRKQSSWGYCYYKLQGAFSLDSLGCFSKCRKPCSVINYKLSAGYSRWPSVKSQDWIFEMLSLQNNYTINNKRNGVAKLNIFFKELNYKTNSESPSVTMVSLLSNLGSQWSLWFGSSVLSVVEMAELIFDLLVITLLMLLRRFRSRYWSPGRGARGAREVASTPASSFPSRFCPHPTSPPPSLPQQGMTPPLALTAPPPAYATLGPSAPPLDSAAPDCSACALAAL

[2] = molecular target: T2, epithelial sodium channel gamma subunit (γ-ENaC) (rat (endogenous in ATII cells)) (UniProt P37091); test: as above
T2 sequence: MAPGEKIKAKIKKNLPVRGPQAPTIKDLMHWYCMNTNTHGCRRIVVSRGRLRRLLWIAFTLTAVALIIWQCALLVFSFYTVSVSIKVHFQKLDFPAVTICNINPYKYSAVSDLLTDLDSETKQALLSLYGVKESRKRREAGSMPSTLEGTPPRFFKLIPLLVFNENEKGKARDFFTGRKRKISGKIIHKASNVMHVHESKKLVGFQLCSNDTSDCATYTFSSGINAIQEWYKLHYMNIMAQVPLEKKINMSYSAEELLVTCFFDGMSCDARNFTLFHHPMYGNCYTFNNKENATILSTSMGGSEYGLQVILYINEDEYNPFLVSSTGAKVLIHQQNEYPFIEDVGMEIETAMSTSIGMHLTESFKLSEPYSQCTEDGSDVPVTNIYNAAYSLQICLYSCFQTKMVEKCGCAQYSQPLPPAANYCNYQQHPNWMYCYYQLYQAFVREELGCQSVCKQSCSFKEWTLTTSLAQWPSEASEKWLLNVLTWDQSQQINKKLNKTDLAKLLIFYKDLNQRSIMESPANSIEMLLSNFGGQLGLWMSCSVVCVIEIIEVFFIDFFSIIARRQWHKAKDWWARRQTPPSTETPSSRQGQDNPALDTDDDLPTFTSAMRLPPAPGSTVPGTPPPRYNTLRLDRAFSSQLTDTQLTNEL

Nedd4-2 (neuronal expressed developmentally downregulated 4-2) (rat (endogenous in ATII cells))
binding [1]: binds | binding [2]: binds
